# Results as given in the supplement of paper PMC8007513.
# Some of the results follow. Repeats are few or missing, and single values can be far off.
# System: Saccharomyces cerevisiae BY4743
# Experiment: growth (OD600) relative to untreated control; higher = less growth inhibition
# Details: compound concentration: 133 uM; 20 h
# Procedure: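 NMCCC compounds (133 uM, no IPBC) tested alone against Saccharomyces cerevisiae BY4743 in YPD, 96-well plates, starting OD600 ~0.1. Growth was read as OD600 at 20 h and expressed as % of the untreated control. Single pass.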
row,Compound,growth
1,O=C(Nc1ccc(Cl)c(-c2nc3cnccc3o2)c1)C(F)(F)F,101%
2,COc1ccc(N(C)C(=O)CN(C)S(=O)(=O)c2ccc3c(c2)c(=O)n(C)c(=O)n3C)c(OC)c1,99.9%
3,N#Cc1c(O)nc(SCc2cccc(C(=O)O)c2)nc1-c1ccco1,97%
4,CCN(CC)C1=CC2=C(C=C1F)C(=O)\C(=C/N2C)[S](=O)(=O)C3=CC=C(C)C=C3,97.9%
5,COC(=O)c1c(C)[nH]c(C(=O)CN2CCCC2c2cccn2C)c1C (stereo unspecified),114%
6,CCCSc1nsc(NC(=O)COC(=O)c2occc2C)n1,91.7%
7,COC1=CC(=CC(=C1OC)Br)C\2\C(=C(\N)O\C3=C2C(=O)CCC3)C#N (stereo unspecified),91%
8,CSc1ccc(CCNC(=O)CN(C)c2nnc(N3CCCC3=O)s2)cc1,109%
9,CCOC(=O)c1csc(NC(=O)c2ccc3c(c2)NC(=O)C(C)S3)n1 (stereo unspecified),81.4%
10,C\C1=C\C(C)(C)N2C(=O)C(=O)C3=CC(=CC1=C23)O,95.4%
11,CCC(=O)Nc1sc(CC#N)nc1-c1ccc(C)cc1,96.5%
12,CC(=O)Nc1c(C)noc1/C=C\c1ccc(C)c(S(=O)(=O)NC2CCCC2)c1,108%
13,CN(C)CCSc1nnc2sc3ccccc3n12,103%
14,Clc1snnc1CSc1nccn1-c1ccccc1,104%
15,Cc1noc(C)c1CSCC(=O)NC1CCN(Cc2ccccn2)CC1,99.2%
16,CSc1nc2ccc(NC(=O)CSC(C)C(=O)Nc3cc(C)on3)cc2s1 (stereo unspecified),103%

# Quoted from the listing.
# For growth, O=C(Nc1ccc(Cl)c(-c2nc3cnccc3o2)c1)C(F)(F)F has the entry 101%
# For growth, CCN(CC)C1=CC2=C(C=C1F)C(=O)\C(=C/N2C)[S](=O)(=O)C3=CC=C(C)C=C3 has the entry 97.9%
